Measured values from article PMC5955893.

Target: GmBEHL1 (BD-GmBEHL1, pGBKT7-GmBEHL1) (soybean (Glycine max cv. Williams 82)) (UniProt I1J8Y4)
Assay: two-hybrid; Matchmaker GAL4 system, pGBKT7 and pGADT7 constructs co-transformed into S. cerevisiae AH109; growth on SD/-Ade/-His/-Leu/-Trp after 2-3 days at 30 °C

Q: Which binding does the source give for “GmBIN2 (pGADT7-GmBIN2) (from UniProt A0A286QY50)” here?
A: binds

Results are given in words; binding and its absence hold for the method and conditions named. A result given as binding can be weak or reduced; the word gives no strength.
